# Test results reported in patent US7399847 (GENERAL HOSPITAL, dated 2008).
# These are yes or no findings as the source states them, for the method shown. Some entries that bind do so weakly or less than the wild type.
# T1: E-selectin Ig chimera (human) (UniProt P16581)
# T1 sequence (looked up): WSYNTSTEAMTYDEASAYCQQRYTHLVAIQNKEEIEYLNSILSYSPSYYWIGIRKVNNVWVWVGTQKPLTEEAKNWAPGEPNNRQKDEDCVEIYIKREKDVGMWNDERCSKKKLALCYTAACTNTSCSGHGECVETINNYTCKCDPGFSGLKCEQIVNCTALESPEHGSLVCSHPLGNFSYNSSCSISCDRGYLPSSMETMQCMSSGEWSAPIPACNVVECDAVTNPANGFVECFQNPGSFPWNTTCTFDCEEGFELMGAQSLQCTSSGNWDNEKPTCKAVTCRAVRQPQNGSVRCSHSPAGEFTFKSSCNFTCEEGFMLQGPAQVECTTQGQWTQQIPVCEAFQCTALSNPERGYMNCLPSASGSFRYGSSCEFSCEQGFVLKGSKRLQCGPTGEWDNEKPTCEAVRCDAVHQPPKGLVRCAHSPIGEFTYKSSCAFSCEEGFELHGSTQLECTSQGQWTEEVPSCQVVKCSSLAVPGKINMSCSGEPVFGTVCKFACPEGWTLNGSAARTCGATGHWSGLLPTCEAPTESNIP
# B1: PSGL-1-flu + FTVII, on COS cells grown in sulfate-free medium with 10 mM sodium chlorate (ligand, UniProt Q14242 42-412, looked up, not shown: small tags and cut ends)
# chain: QATEYEYLDYDFLPETEPPEMLRNSTDTTPLTGPGTPESTTVEPAARRSTGLDAGGAVTELTTELANMGNLSTDSAAMEIQTTQPAATEAQTTQPVPTEAQTTPLAATEAQTTRLTATEAQTTPLAATEAQTTPPAATEAQTTQPTGLEAQTTAPAAMEAQTTAPAAMEAQTTPPAAMEAQTTQTTAMEAQTTAPEATEAQTTQPTATEAQTTPLAAMEALSTEPSATEALSMEPTTKRGLFIPFSVSSVTHKGIPMAASNLSVNYPVGAPDHISVKQCLLAILILALVATIFFVCTVVLAVRLSRKGHMYPVRNYSPTEMVCISSLLPDGGEGPSATANGGLSKAKSPGLTPEPREDREGDDLTLHSFLP
# modifications: sulfation inhibited by 10 mM NaClO3; sLe^x present
# Molecular target: T1, E-selectin Ig chimera (human)
# Assay: adhesion of 51Cr-labelled COS cells (PSGL-1 + FTVII, 10 mM NaClO3) to immobilized E-selectin Ig
binder,measurement,value
B1,binding,binds
